Laboratory results from PubChem BioAssay AID2685 (National Center for Advancing Translational Sciences (NCATS), 2010).
About 2,100 (0.66%) of roughly 320,000 compounds were called active. The shares of active, inactive and inconclusive entries below differ from those in the screen. Calls follow the shape of the dose curve; as a rule, active = well fitted inhibition curve with a large enough effect in the signal ratio, with a control signal flat (not every such curve was filed as active); inconclusive = small, poorly fitted or top-dose-only effect, or effect the other way, or a change in a side signal; inactive = flat fitted curve, though single readings scatter; the % refers to the signal ratio. Potencies of inconclusive entries are doubtful fits and often do not repeat.
% is scaled to controls: 0 for no effect and ±100 for the full control effect; potency is read from the fitted curve at half-maximal effect.

Assay: qHTS Assay for Lipid Storage Modulators in Drosophila S3 Cells
Details: BODIPY lipid droplet fluorescence, 18-24 h, cells fed with added oleic acid; lipid storage change, negative = inhibition: at 46.1 µM (top of the series) unless noted
Outline: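 Drosophila S3 cells loaded with oleic acid (400 uM, as added) and compounds at several concentrations; lipid droplets imaged by 488-nm laser-scanning cytometry, 500–530 nm intensity and object ratio to cell channel. Percent activity normalized to 20 uM Triacsin C.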
In the case of `COc1ccccc1C1C(C(N)=O)=C(C)Nc2nc(CCCO)nn21` (stereo not drawn), the lipid storage change, negative = inhibition was inconclusive: 2.72%. In the case of `CCC(=O)Nc1cc(=O)[nH]c2ncnn12`, the lipid storage change, negative = inhibition was “inactive”. For `CCOC(=O)C(Cc1ccc(NC(=O)/C(=C\c2ccccc2)NC(=O)c2ccccc2)cc1)N1C(=O)c2ccccc2C1=O` (stereo not drawn), the lipid storage change, negative = inhibition was inconclusive: -55.2%. For `Cc1ccc2nc(C(=O)O)c(C(=O)O)nc2c1`, the lipid storage change, negative = inhibition was inconclusive: -30.7% [cytotoxic]. With `COc1ccc2oc(C(=O)Nc3ccc(S(=O)(=O)N(C)C4CCN(C)CC4)cc3)c(C)c2c1` the lipid storage change, negative = inhibition was inconclusive: -30.2%. For `CCOc1cc(/C=N/NC(=O)CNc2cccc(C)c2)ccc1OC(=O)c1ccccc1`, the lipid storage change, negative = inhibition was inconclusive: 54.1%. With `COc1ccccc1CNC(=O)/C=C/c1ccc(S(=O)(=O)N2CCOCC2)cc1` the Potency was inconclusive: 5.17 µM [activator, partial curve]. For `Cn1ncc2c(=O)n(/N=C/c3ccccc3)cnc21`, the Potency was inconclusive: 0.326 µM [falling, partial curve, poor fit]. For `CC(=O)Nc1cccc(NC(=O)c2csc(C)c2)c1`, the Potency was inconclusive: 3.66 µM [falling, single point]. With `O=C(O)CCN1C(=O)CC2(CCCCC2)C1=O` the lipid storage change, negative = inhibition was inconclusive: -20.5%. For `CNc1c(NS(=O)(=O)c2ccc(CC(C)C)cc2)c(=O)oc2ccccc12`, the Potency was inconclusive: 29.1 µM [activator, partial curve]. In the case of `O=C(Nc1ccccc1C(=O)OCc1nnc(-c2ccccc2)o1)c1ccco1`, the Potency was inconclusive: 1.84 µM [falling, full curve]. In the case of `Cc1cnc(C(=O)OCC(=O)c2ccc(F)c(F)c2)cn1`, the lipid storage change, negative = inhibition was “inactive”. With `COc1ccc2[nH]c(C(=O)O)c(NS(=O)(=O)c3ccc(C)c(C)c3)c2c1` the Potency was inconclusive: 6.51 µM [falling, single point]. For `Cn1ncc(Cl)c1C(=O)N1CCN(S(=O)(=O)c2ccc(Cl)s2)CC1`, the Potency was inconclusive: 9.2 µM [activator, partial curve]. For `CC(=O)c1cccc(N(CC(=O)N2CCCCC2)S(C)(=O)=O)c1`, the Potency was inconclusive: 16.4 µM [falling, single point]. For `CCCCCCC(=O)NC(Nc1ccc(S(N)(=O)=O)cc1)C(Cl)(Cl)Cl` (stereo not drawn), the Potency was inconclusive: 1.3 µM [falling, single point]. In the case of `COc1cc(C(=S)N2CCCC2)cc(OC)c1OC`, the lipid storage change, negative = inhibition was inconclusive: -27.1% [at 9.22 µM]. With `Clc1cccc(CNCC2CCCO2)c1Cl` (stereo not drawn) the Potency was inconclusive: 29.1 µM [activator, single point]. In the case of `CC(C)Cc1nnc(NC(=O)c2ccc3c(c2)NC(=O)C(C)S3)s1` (stereo not drawn), the lipid storage change, negative = inhibition was “inconclusive”. With `Cc1ccc(-c2csc(N3CCC[C@@H]3C(=O)NCCn3c(C(F)(F)F)nc4ccccc43)n2)cc1` the Potency was inconclusive: 18.4 µM [falling, single point]. With `Cc1cccc(C)c1NC(=O)CN1C(=O)S/C(=C\c2cccn2C)C1=O` the lipid storage change, negative = inhibition was inconclusive: 9.57%. For `Cc1cc(S(=O)(=O)N2CCCC2)ccc1OCC(=O)Nc1ccc(C(N)=O)cc1`, the Potency was inconclusive: 25.9 µM [falling, single point]. In the case of `CCCNC(=O)CSc1nnc(-c2ccco2)n1C`, the lipid storage change, negative = inhibition was inconclusive: -18.3%. In the case of `COc1ccc(OC)c(-c2cc(C(=O)Nc3cc(C)n(Cc4ccc(Cl)cc4)n3)no2)c1`, the lipid storage change, negative = inhibition was inconclusive: -8.24%. For `CSc1ccccc1NC(=O)Cn1ccsc1=N`, the lipid storage change, negative = inhibition was inconclusive: -7.35%. For `CCCOC(=O)C1[C@H]2C(=O)N(Cc3ccco3)C[C@]23C=C[C@H]1O3` (stereo partly drawn), the Potency was inconclusive: 29.1 µM [falling, single point]. For `CC(C)(C)c1ccc(S(=O)(=O)Nc2ccc(C(=O)N3CCCC3)cc2)cc1`, the lipid storage change, negative = inhibition was inconclusive: -33.1%. For `Cc1nc(N)c(Cc2ccccc2F)c(N)n1`, the Potency was inconclusive: 3.66 µM [rising, partial curve, poor fit]. With `COc1ccc(CC(=O)OC(C)C(=O)NCc2ccc3c(c2)OCO3)cc1OC` (stereo not drawn) the Potency was inconclusive: 1.46 µM [falling, partial curve]. With `CC(=O)N=c1sccn1CC(O)c1ccccc1` (stereo not drawn) the lipid storage change, negative = inhibition was inconclusive: -5.16%. For `Cc1cccc(C)c1NC(=O)CS(=O)CC(=O)NCCCc1ccccc1` (stereo not drawn), the lipid storage change, negative = inhibition was inconclusive: 19.9%. For `Cc1cccc(/C=N/n2c(-c3ccccc3)n[nH]c2=S)c1O`, the lipid storage change, negative = inhibition was inconclusive: 14.6%. In the case of `CC1CCC(C(C)C)C(OCC(O)CNC(C)c2ccccc2)C1` (stereo not drawn), the lipid storage change, negative = inhibition was inconclusive: 16.1% [at 9.22 µM]. With `N#CCOC(=O)C1CCN(S(=O)(=O)c2ccc3c(c2)OCCO3)CC1` the Potency was inconclusive: 6.51 µM [activator, partial curve]. For `COc1ccccc1C1C(C(C)=O)=C(O)C(=O)N1c1ccc(O)cc1` (stereo not drawn), the lipid storage change, negative = inhibition was inconclusive: 15.1%. For `CCOc1ccc(/C=N/NC(=O)Cc2csc(Nc3cccc(C(F)(F)F)c3)n2)c(OCC)c1`, the lipid storage change, negative = inhibition was inconclusive: 49.8%. In the case of `O=C(Nc1cccc(-n2cnnn2)c1)c1ccoc1COc1ccc(Cl)cc1`, the Potency was active: 29.1 µM. For `O=C(O)COc1cccc(NC(=O)C2CCCO2)c1` (stereo not drawn), the lipid storage change, negative = inhibition was inconclusive: -60.4%. For `CCOc1ccc(C(=O)N/N=C(\c2ccccc2)c2ccccn2)cc1`, the Potency was inconclusive: 16.4 µM [falling, partial curve]. With `CCN(C(=O)COC(=O)c1cc(-c2ccccc2)nc2ccc(Br)cc12)C1CCS(=O)(=O)C1` (stereo not drawn) the lipid storage change, negative = inhibition was inconclusive: 53.2%. For `Cc1c(C(=O)NC2CCS(=O)(=O)C2)oc2ccccc12` (stereo not drawn), the Potency was inconclusive: 0.58 µM [activator, single point]. With `CCC(CC)C(=O)Nc1cccc(C(=O)NC(C)(C)C)c1` the lipid storage change, negative = inhibition was inconclusive: 19%. With `CCCCC(CC)C(=O)Nc1ccc(S(=O)(=O)N2CCCC2)cc1` (stereo not drawn) the Potency was inconclusive: 20.6 µM [falling, partial curve]. In the case of `O=C(CN(Cc1ccccc1)C(=O)CNS(=O)(=O)c1ccccc1)NCC1CCCO1` (stereo not drawn), the lipid storage change, negative = inhibition was inconclusive: 58.1%. In the case of `CCOc1c2ccc(C(=O)NCc3ccc(C(F)(F)F)cc3C(F)(F)F)cc2nn1C`, the lipid storage change, negative = inhibition was inconclusive: -7.82%. With `COc1ccc(Nc2nc(C)cc(C)c2C#N)c(OC)c1` the Potency was inconclusive: 29.1 µM [activator, single point]. For `Cc1nc(-c2ccc(F)cc2)c(CC(=O)N(C)CC(=O)Nc2c(C)cccc2C)s1`, the lipid storage change, negative = inhibition was “inconclusive”. In the case of `CN(CC(=O)Nc1ccccc1Br)C(=O)c1cc([N+](=O)[O-])ccc1N1CCOCC1`, the lipid storage change, negative = inhibition was inconclusive: -61.4% [at 0.0737 µM]. With `COc1ccc(-c2cn(-c3ccccc3)c3[n+]2CCS3)cc1` the lipid storage change, negative = inhibition was inconclusive: 1.65%. With `CC(=O)c1cccc(NC(=O)C(C)OC(=O)c2ccc3ncsc3c2)c1` (stereo not drawn) the Potency was inconclusive: 4.11 µM [falling, single point]. In the case of `O=C(CCc1ccc(S(=O)(=O)NCc2ccccc2)cc1)NCc1cccnc1`, the Potency was inconclusive: 11.6 µM [activator, partial curve, poor fit]. For `CCCCCc1cc(=O)oc2c(C(CCN3CCN(c4ccccc4)CC3)c3ccc(N(C)C)cc3)c(OC)cc(OC)c12` (stereo not drawn), the lipid storage change, negative = inhibition was inconclusive: -7.87%. For `COC(=O)c1ccc(OC(=O)C2CSC3(C)CCC(=O)N23)cc1` (stereo not drawn), the lipid storage change, negative = inhibition was “inconclusive”. With `C/C(N)=C(/C#N)C(=O)CSc1nc2ccccc2c(=O)n1-c1ccc(C)cc1` the lipid storage change, negative = inhibition was inconclusive: 22.5%. In the case of `Cc1cc(/C=C(\C#N)C(=O)Nc2ccc(Cl)cc2)c(C)n1-c1ccc(N2CCOCC2)c([N+](=O)[O-])c1`, the lipid storage change, negative = inhibition was inconclusive: 10.1%. In the case of `CC(C)OC(=O)CSc1nnc(-c2ccccn2)n1N`, the lipid storage change, negative = inhibition was inconclusive: 41.7%. For `CCCSc1ccc([C@H]2N[C@@](C)(C(=O)OC)[C@H]3C(=O)N(C)C(=O)[C@@H]23)cc1OC`, the lipid storage change, negative = inhibition was inconclusive: 8.86%. For `C[C@@]12C(=O)Nc3ccccc3C(=O)N1[C@H]1c3cc(Br)ccc3OC[C@@H]1[C@@H]2c1ccccc1`, the Potency was inconclusive: 0.0411 µM [activator, single point]. With `Cc1ccc(NC(=O)CN(C)C(=O)Cc2ccc(Cl)cc2Cl)cc1` the lipid storage change, negative = inhibition was inconclusive: 231%. In the case of `CN1CCC(NC(=S)NC2CC2)CC1`, the lipid storage change, negative = inhibition was inconclusive: 10.8%. For `O=c1c(Cc2c(F)cccc2Cl)c(O)ccn1CCc1ccccn1`, the Potency was active: 14.1 µM. For `O=C(CSc1nncs1)Nc1ccc(Cl)cc1C(F)(F)F`, the lipid storage change, negative = inhibition was inconclusive: -30.9% [at 0.0737 µM]. In the case of `CCOC(=O)CC1COc2ccccc2N1C(=O)c1ccc(C)cc1` (stereo not drawn), the lipid storage change, negative = inhibition was inconclusive: 39.5%. With `COc1cc(-c2noc(C)c2C#Cc2ccccn2)cc(OC)c1OC` the lipid storage change, negative = inhibition was inconclusive: -24.3%. For `Cc1ccccc1-n1c(Cn2c(=O)sc3ccccc32)nnc1SCC(N)=O`, the Potency was inconclusive: 5.17 µM [falling, full curve, poor fit]. With `O=C(NC1CCCC1)C(c1ccccn1)N(C(=O)c1csnn1)c1ccccc1F` (stereo not drawn) the Potency was inconclusive: 0.116 µM [activator, partial curve, poor fit]. With `Cc1ccc(OCc2ccc(C(=O)NCc3cccnc3)cc2)cc1C` the lipid storage change, negative = inhibition was inconclusive: -22.2%. In the case of `CC(=O)Nc1ccc(NC(=O)c2c(C)nc3ccccn23)cc1`, the lipid storage change, negative = inhibition was inconclusive: 15.2%. For `ClCC1CSC(=NC23CC4CC(CC(C4)C2)C3)O1` (stereo not drawn), the Potency was inconclusive: 5.8 µM [falling, single point]. With `CCN(CCNC(=O)CN1CCN(Cc2ccc(Cl)cc2)C1=O)c1ccccc1` the Potency was inconclusive: 23.1 µM [activator, single point]. With `Cc1ccc(N2CC(C(=O)Nc3ccc(S(=O)(=O)NCC4CCCO4)cc3)CC2=O)cc1C` (stereo not drawn) the lipid storage change, negative = inhibition was inconclusive: 71.1%. In the case of `CS(=O)(=O)N(CC(=O)NCCC1=CCCCC1)c1cccc([N+](=O)[O-])c1`, the Potency was inconclusive: 25.9 µM [falling, single point].
